Data from PubChem BioAssay (Tox21).
Several values for one entry are separate records, joined by “and”; a condition that tells them apart may be missing. Identical values can stand only once. Inconclusive results, whose numbers are uncertain, are shown with a selection of clear calls. For some assays here: A potency beside an inconclusive call is a rough fit, not a confirmed value. Activity calls are given as the source filed them. Unless noted, the call rests on the fitted dose curve.

Amino acid sequences for entries named in this document (tags omitted).
UniProt P14416, whole entry, looked up: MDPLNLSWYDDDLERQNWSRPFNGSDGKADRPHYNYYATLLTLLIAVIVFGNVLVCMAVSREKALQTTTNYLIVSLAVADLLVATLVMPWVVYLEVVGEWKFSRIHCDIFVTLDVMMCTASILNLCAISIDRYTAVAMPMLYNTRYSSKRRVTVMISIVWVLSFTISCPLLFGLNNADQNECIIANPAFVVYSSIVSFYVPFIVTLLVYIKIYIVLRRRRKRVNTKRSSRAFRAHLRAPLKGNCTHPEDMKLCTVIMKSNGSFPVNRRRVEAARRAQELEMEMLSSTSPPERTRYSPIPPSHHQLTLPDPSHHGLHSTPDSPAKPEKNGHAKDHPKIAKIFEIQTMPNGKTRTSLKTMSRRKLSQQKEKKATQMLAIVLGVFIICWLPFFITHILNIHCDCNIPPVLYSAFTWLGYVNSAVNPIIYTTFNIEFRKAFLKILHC
UniProt P28223, whole entry, looked up: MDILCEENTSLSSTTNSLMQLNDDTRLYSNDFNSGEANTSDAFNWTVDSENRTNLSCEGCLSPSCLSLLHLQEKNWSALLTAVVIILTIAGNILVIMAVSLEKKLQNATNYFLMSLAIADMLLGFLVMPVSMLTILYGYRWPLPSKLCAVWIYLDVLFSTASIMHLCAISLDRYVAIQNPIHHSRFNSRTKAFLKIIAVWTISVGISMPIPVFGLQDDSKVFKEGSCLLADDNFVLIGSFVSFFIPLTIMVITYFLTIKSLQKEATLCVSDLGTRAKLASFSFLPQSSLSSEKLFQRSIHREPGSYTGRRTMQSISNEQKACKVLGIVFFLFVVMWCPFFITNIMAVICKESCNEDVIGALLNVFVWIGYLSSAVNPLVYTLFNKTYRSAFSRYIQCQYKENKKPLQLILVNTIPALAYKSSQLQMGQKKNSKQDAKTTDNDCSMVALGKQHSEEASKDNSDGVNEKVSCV

What was measured:
[1] = p53 small molecule agonists, cell-based qHTS assay with rat liver microsomes: qHTS cell viability counter screen (AID 1963580); conditions: p53RE-bla HCT-116 + rat microsomes, ATP viability, 16 h; series mostly up to 66 µM; further: nearly all actives have a fitted effect of over 45% in size; further: potency means the concentration at half of the fitted maximal effect
In short: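 After the beta-lactamase ratio was read, CellTiter-Glo was added to the same wells and luminescence measured at 30 min; cells had been treated 16 h at 37 C with compounds, rat liver microsomes and NADPH (0.5 mg/mL final each).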

[2] = p53 small molecule agonists, cell-based qHTS assay: qHTS cell viability counter screen (AID 1963581); conditions: p53RE-bla HCT-116 viability, ATP luminescence, 16 h; series mostly up to 66 µM; further: nearly all actives have a fitted effect of over 45% in size; further: potency means the concentration at half of the fitted maximal effect
In short: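 Luminescence from CellTiter-Glo, reflecting ATP content, serves as the cytotoxicity measure; it is taken after the 2 h reporter substrate step in HCT-116 p53RE-bla cells dosed for 16 h at 37 C.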

[3] = target: Beta-2 adrenergic receptor (Homo sapiens) (UniProt P07550); assay: Adrenergic beta2 receptor (ADRB2) small molecule agonists, cell-based qHTS assay (AID 1963593); conditions: CHO-ADRB2 cells, cAMP HTRF, 30 min; further: potency means the concentration at half of the fitted maximal effect;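 on activation: CHO cells stably overexpressing human ADRB2; on the % scale 0 is the no-effect control and ±100 the full control effect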
In short: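 CHO cells stably over-expressing ADRB2 were plated overnight at 37C, then dosed with compounds plus a stimulation mix containing 100uM IBMX and 25uM Ro-20-1724 for 0.5hr at room temperature. cAMP was measured by HTRF competition, 1hr.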

[4] = target: D(2) dopamine receptor (Homo sapiens) (UniProt P14416); assay: Dopamine D2 receptor (DRD2) small molecule antagonists, cell-based qHTS assay (AID 1963595; active means well fitted inhibition curve with a large enough effect in the signal ratio in the repeat runs, with a control signal flat; inconclusive means weak or mixed curves, or effect the other way; the % refers to the signal ratio; further: on the % scale 0 is the no-effect control and ±100 the full control effect); conditions: HEK293-DRD2 cAMP HTRF antagonist mode; activity change, negative = inhibition: at 92.4 µM (top of the series) unless noted
In short: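 Human DRD2 antagonist qHTS measuring cAMP by HTRF. The cells are exposed to compound for 10 min, then to NKH477 (200 nM) and quinpirole (12 nM) for 30 min at RT, with Ro20-1724 (0.1 mM) present throughout.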

[5] = cAMP Responsive Elements (CRE) small molecule antagonists, cell-based qHTS assay (AID 1963591; active means well fitted inhibition curve with a large enough effect in the signal ratio in the repeat runs, not every such curve was filed as active; inconclusive means weak or mixed curves, or effect the other way; the % refers to the signal ratio; further: on the % scale 0 is the no-effect control and ±100 the full control effect); conditions: CRE-bla HEK293T, beta-lactamase FRET ratio; activity change, negative = inhibition: at 92.4 µM (top of the series) unless noted
In short: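 Stimulation used NKH477 at a final 0.25 uM for 3 h in compound-treated CRE-bla HEK293T cells, seeded 18 h beforehand. Reporter activity was measured with LiveBLAzer B/G FRET substrate after 2 h at room temperature.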

[6] = target: D(2) dopamine receptor (Homo sapiens) (UniProt P14416); assay: Dopamine D2 receptor (DRD2) small molecule agonists, cell-based qHTS assay (AID 1963594); conditions: HEK293-DRD2 cAMP HTRF, agonist mode, 30 min; activation: at 92.4 µM (top of the series) unless noted; further: on the % scale 0 is the no-effect control and ±100 the full control effect; nearly all actives have a fitted effect of over 35% in size
In short: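 HEK293 cells stably expressing human DRD2, pre-treated with PDE inhibitor Ro20-1724 (0.1 mM final) and compound 10 min at room temperature, then stimulated with NKH477 (200nM […]) for 30 min. cAMP read by HTRF (665/620 nm).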

[7] = target: 5-hydroxytryptamine receptor 2A (Homo sapiens) (UniProt P28223); assay: 5-hydroxytryptamine receptor 2A (HTR2A) small molecule agonists, cell-based qHTS assay (AID 1963587); conditions: HTR2A-CHO cells, calcium flux fluorescence, agonist mode; series mostly up to 76.8 µM; further: potency means the concentration at half of the fitted maximal effect; nearly all actives have a fitted effect of over 30% in size
In short: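 CHO cells stably expressing human HTR2A, plated 18 h, loaded with calcium dye 1 h at 37 C. Agonist mode: compounds added and intracellular calcium fluorescence recorded kinetically for 2 min at 1 sec intervals.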

[8] = target: 5-hydroxytryptamine receptor 2A (Homo sapiens) (UniProt P28223); assay: 5-hydroxytryptamine receptor 2A (HTR2A) small molecule antagonists, cell-based qHTS assay (AID 1963586); conditions: HTR2A-CHO cells, DOI-induced calcium flux, fluorescence; series mostly up to 61.5 µM; further: potency means the concentration at half of the fitted maximal effect; nearly all actives have a fitted effect of over 45% in size
In short: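 CHO cells stably expressing human HTR2A were plated for 18 h at 37 C, then loaded with calcium dye for 1 h. Compounds were preincubated 5 min at room temperature before DOI (4 nM solution) was added. Kinetic fluorescence was read for 3 min.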

[9] = target: Beta-2 adrenergic receptor (Homo sapiens) (UniProt P07550); assay: Adrenergic beta2 receptor (ADRB2) small molecule antagonists, cell-based qHTS assay (AID 1963592); conditions: CHO-ADRB2 cells, isoproterenol-stimulated cAMP HTRF ratio, 0.5 h; activity change, negative = inhibition: at 92.4 µM (top of the series) unless noted; further: nearly all actives have a fitted effect of over 50% in size; further: potency means the concentration at half of the fitted maximal effect; on activity change, negative = inhibition: on the % scale 0 is the no-effect control and ±100 the full control effect
In short: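 Assay format: CHO-ADRB2 cells, 18-20hr seeding at 37C/5% CO2, then compound plus 1nM isoproterenol agonist mix for 0.5hr RT. Homogeneous time-resolved fluorescence cAMP detection after 1hr, expressed as 665/615 nm ratio.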

[10] = cAMP Responsive Elements (CRE) small molecule agonists, cell-based qHTS assay (AID 1963590); conditions: CRE-bla HEK293T, beta-lactamase FRET ratio, 3 h; activation: at 92.4 µM (top of the series) unless noted; further: potency means the concentration at half of the fitted maximal effect
In short: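 Compound exposure lasted 3 h at 37 C/5% CO2 in CRE-bla HEK 293T cells grown in assay medium with 10% dialyzed FBS and 25 mM HEPES. Reporter signal came from LiveBLAzer B/G FRET substrate, 2 h, room temperature.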

[11] = activation: at 92.4 µM (top of the series) unless noted

CC(C)OB(OC(C)C)OC(C)C
Potency [1]: inconclusive: 45.8 µM [cytotoxic, single point]
Potency [2]: inconclusive: 20.4 µM [cytotoxic, partial curve, poor fit]
activation [3, 11]: inconclusive: -27.9%
activation ([3]; at 92.4 µM (top of the series)): inactive: 13.4%
Potency [4]: inactive

[Cl][Dy]([Cl])[Cl]
Potency [1]: inactive
Potency [2]: inactive
Potency [3, 11]: inactive
activity change, negative = inhibition [4]: inconclusive: -5.92%

BrC(Br)C(Br)Br
Potency [1]: inactive
Potency [2]: inconclusive: 16.2 µM [cytotoxic, single point]
Potency [5]: inactive
Potency [3, 11]: inconclusive: 24.2 µM [activator, partial curve, poor fit]
Potency [6]: inactive

Cc1ccc(S(=O)(=O)O)cc1
Potency [1]: inconclusive: 18.2 µM [rising, single point]
Potency [2]: inactive
Potency [3, 11]: inactive

Cc1cccc2sc(N)nc12
Potency [1]: inactive
Potency [2]: inconclusive: 20.7 µM [rising, full curve, poor fit]
Potency [3, 11]: inactive

CN(C)CCCSc1ccccc1NC(=O)/C=C/c1ccccc1
Potency [7]: inconclusive: 26.8 µM [activator, single point]

O=C1OCc2ccccc21
Potency [7]: inconclusive: 49 µM [activator, partial curve, poor fit]

CC(C)OP(=O)(CP(=O)(OC(C)C)OC(C)C)OC(C)C
activation ([3]; at 42.5 µM (top of the series)): inactive: -22.1%

O=CCc1ccccc1
activation ([3]; at 92.4 µM (top of the series)): inactive: 19%

O=C(NCCc1c[nH]c2ccccc12)c1cccnc1
Potency [8]: inconclusive: 0.0018 µM [inhibitor, full curve, poor fit]

OCCc1ccncc1
Potency [8]: inconclusive: 0.375 µM [inhibitor, single point]

CCOC(=O)C(C)O (centres undefined)
Potency [1]: inactive
activation [3, 11]: inconclusive: 0.207%

CC(C)=CCC/C(C)=C/CO
Potency [1]: inconclusive: 4.64 µM [cytotoxic, single point]
Potency [5]: inactive
Potency [3, 11]: inconclusive: 2.98 µM [inhibitor]

Nc1ccc(C(=O)O)c(O)c1
Potency [1]: inactive
activation [3, 11]: inconclusive: 3.99% [at 42.5 µM]

CC(=O)Nc1ccc(C(=O)CCl)cc1
Potency [1]: inconclusive: 0.183 µM [cytotoxic, single point]
activity change, negative = inhibition [5]: inconclusive: 10.5%
Potency [3, 11]: inconclusive: 6.89 µM [inhibitor, partial curve, poor fit]
activation [3, 11]: inconclusive: -60.1%

CCCCCCCCOC(C)=O
Potency [1]: inconclusive: 51.3 µM [rising, partial curve, poor fit]
Potency [5]: inactive
Potency [3, 11]: inconclusive: 0.217 µM [inhibitor, full curve, poor fit]

CC(C)(C)NCC(O)COc1ccccc1OCC1CCCO1 (centres undefined)
Potency [1]: inactive
Potency [9]: active: 0.0266 µM
Potency [3, 11]: inconclusive: 0.0422 µM [inhibitor, full curve]

COCCC(=O)OC
Potency [1]: inconclusive: 45.8 µM [cytotoxic, single point]
activation [3, 11]: inconclusive: 17.2%

C=CCn1c(=O)n(CC=C)c(=O)n(CC=C)c1=O
Potency [1]: inactive
activity change, negative = inhibition [5]: inconclusive: 20.9%
Potency [3, 11]: inactive

CCCCCC(=O)O
Potency [1]: inconclusive: 8.15 µM [cytotoxic, single point]
Potency [3, 11]: inactive

CCO
Potency [1]: inconclusive: 0.246 µM [cytotoxic, single point]
activation [3, 11]: inconclusive: 22.5%

OCCN(CCO)CCN(CCO)CCO
Potency [1]: inconclusive: 40.8 µM [rising, single point]
activation [3, 11]: inconclusive: -47%

O=C(OCc1ccccc1)c1ccccc1O
Potency [1]: inconclusive: 4.54 µM [cytotoxic, single point]
Potency [10]: inconclusive: 77 µM [rising, partial curve, poor fit]
activation [3, 11]: inconclusive: -2.14%
Potency [6]: inactive

CC(C)(C)NC(=O)[C@H]1CC[C@H]2[C@@H]3CC[C@H]4NC(=O)C=C[C@]4(C)[C@H]3CC[C@]12C
Potency [1]: inconclusive: 1.8 µM [cytotoxic, single point]
Potency [3, 11]: inconclusive: 67.8 µM [inhibitor]

COc1ccc(C(=O)c2cccc(O)c2)c(OC)c1
Potency [1]: inactive
Potency [3, 11]: inconclusive: 5.44 µM [inhibitor, full curve, poor fit]

O=C1NC(=O)C(c2ccccc2)(c2ccccc2)N1
Potency [1]: inconclusive: 4.54 µM [cytotoxic, single point]
activity change, negative = inhibition [5]: inconclusive: -20.7% [at 42.4 µM]
Potency [3, 11]: inactive and inconclusive: 13.7 µM [inhibitor, single point]

CCC(=O)OCc1ccccc1
Potency [1]: inactive
Potency [9]: inactive
activation [3, 11]: inconclusive: 4.43%

COc1ccc(-c2ccc3cc(C(=O)O)ccc3c2)cc1C12CC3CC(CC(C3)C1)C2
Potency [1]: inactive
Potency [3, 11]: inconclusive: 3.35 µM [activator, partial curve, poor fit]

C[Si]1(C)O[Si](C)(C)O[Si](C)(C)O[Si](C)(C)O[Si](C)(C)O1
Potency [1]: inactive
Potency [3, 11]: inconclusive: 0.0015 µM [falling, full curve, poor fit]

CCCCNc1ccc(NCCCC)c2c1C(=O)c1ccccc1C2=O
Potency [1]: inconclusive: 0.194 µM [cytotoxic, partial curve, poor fit]
activation [3, 11]: inconclusive: -1.88% [at 19 µM]
